Experimental data from the supplement of paper PMC9433722.
Where a name gives a salt, the structure may show the parent alone. The list shows a part of the results. Many values rest on one well or one pass, so single values are uncertain.

system: Saos-2; test: cell viability (CCK-8) relative to DMSO control (% of control); higher = less cytotoxic; conditions: 10 µM; 48 h

Row | Compound | cell viability
1 | CC(C)Nc1cccnc1N1CCN(C(=O)c2cc3cc(NS(C)(=O)=O)ccc3[nH]2)CC1 [Delavirdine Mesylate] | 61.8
2 | CC(C)c1ccc2oc3nc(N)c(C(=O)O)cc3c(=O)c2c1 [Amlexanox] | 122
3 | CC1(C)O[C@@H]2C[C@H]3[C@@H]4CCC5=CC(=O)CC[C@]5(C)[C@@]4(F)[C@@H](O)C[C@]3(C)[C@]2(C(=O)CCl)O1 [Halcinonide] | 111
4 | CCCC1O[C@@H]2C[C@H]3[C@@H]4CCC5=CC(=O)C=C[C@]5(C)[C@H]4[C@@H](O)C[C@]3(C)[C@]2(C(=O)CO)O1 (some centres undefined) [Budesonide] | 121
5 | CCC(=O)O[C@]1(C(=O)CCl)[C@@H](C)C[C@H]2[C@@H]3CCC4=CC(=O)C=C[C@]4(C)[C@@]3(F)[C@@H](O)C[C@@]21C [Clobetasol Propionate] | 69.4
6 | COc1c(N2C[C@@H]3CCCN[C@@H]3C2)c(F)cc2c(=O)c(C(=O)O)cn(C3CC3)c12 [Moxifloxacin·HCl] | 52.4
7 | CN(C)CCC(c1ccc(Br)cc1)c1ccccn1 (centres undefined) [Brompheniramine Maleate] | 112
8 | C=C(c1ccc(C(=O)O)cc1)c1cc2c(cc1C)C(C)(C)CCC2(C)C [Bexarotene] | 63
9 | CC(C)(C(=O)O)c1ccc(C(O)CCCN2CCC(C(O)(c3ccccc3)c3ccccc3)CC2)cc1 (centres undefined) [Fexofenadine·HCl] | 101
10 | CCCCNc1cc(C(=O)O)cc(S(N)(=O)=O)c1Oc1ccccc1 [Bumetanide] | 59.5
11 | O=C1CN(/N=C/c2ccc(-c3ccc([N+](=O)[O-])cc3)o2)C(=O)N1 [Dantrolene . sodium] | 106
12 | O=C1CC2(CCCC2)CC(=O)N1CCCCN1CCN(c2ncccn2)CC1 [Buspirone·HCl] | 65.6
13 | CCN(CCO)CCCC(C)Nc1ccnc2cc(Cl)ccc12 (centres undefined) [Hydroxychloroquine Sulfate] | 98.1
14 | CCCC(=O)Nc1ccc(OCC(O)CNC(C)C)c(C(C)=O)c1 (centres undefined) [Acebutolol . Hydrochloride] | 90.6
15 | NS(=O)(=O)c1cc(C2(O)NC(=O)c3ccccc32)ccc1Cl (centres undefined) [Chlorthalidone] | 100
16 | CCCc1nn(C)c2c(=O)[nH]c(-c3cc(S(=O)(=O)N4CCN(C)CC4)ccc3OCC)nc12 [Sildenafil Citrate] | 58.6
17 | O=C(CCCN1CC=C(n2c(=O)[nH]c3ccccc32)CC1)c1ccc(F)cc1 [Droperidol] | 119
18 | CC(C)(C)NC(=O)[C@@H]1C[C@@H]2CCCC[C@@H]2CN1C[C@@H](O)[C@H](Cc1ccccc1)NC(=O)[C@H](CC(N)=O)NC(=O)c1ccc2ccccc2n1 [Saquinavir Mesylate] | 108
19 | CN(C)CCOC(c1ccccc1)c1ccccc1 [Diphenhydramine·HCl] | 62.9
20 | C[N+]1(C)[C@@H]2CC[C@H]1C[C@@H](OC(=O)C(O)c1ccccc1)C2 (some centres undefined) [Homatropine Methylbromide] | 112

Row | Compound | cell viability
21 | NC(=O)c1cn(Cc2c(F)cccc2F)nn1 [Rufinamide] | 113
22 | COc1ccc([C@@H]2Sc3ccccc3N(CCN(C)C)C(=O)[C@@H]2OC(C)=O)cc1 [Diltiazem . hydrochloride] | 55.4
23 | COC(=O)C1=C(C)NC(C)=C(C(=O)OC)C1c1ccccc1[N+](=O)[O-] [Nifedipine] | 51.4
24 | CS(=O)(=O)OCCCCOS(C)(=O)=O [Busulfan] | 115
25 | O=C1O[C@H]([C@@H](O)CO)C(O)=C1O [L-Ascorbic Acid] | 110
26 | O=C1CCC(N2C(=O)c3ccccc3C2=O)C(=O)N1 (centres undefined) [Thalidomide] | 69.3
27 | CC(C)NCC(O)COc1cccc2[nH]ccc12 (centres undefined) [Pindolol] | 61.4
28 | CCc1nc(N)nc(N)c1-c1ccc(Cl)cc1 [Pyrimethamine] | 73.2
29 | NC(=O)NO [Hydroxyurea] | 106
30 | Cc1ccc(C(=O)c2cc(O)c(O)c([N+](=O)[O-])c2)cc1 [Tolcapone] | 64.1
31 | Cc1cccc(Nc2ccncc2S(=O)(=O)NC(=O)NC(C)C)c1 [Torsemide] | 105
32 | C[N+](C)(C)CC(=O)O [Betaine] | 118
33 | CC1=C(C(=O)O)N2C(=O)[C@@H](NC(=O)[C@H](N)c3ccccc3)[C@H]2SC1 [Cephalexin Monohydrate] | 102
34 | CN(C)CC[C@@H](c1ccc(Cl)cc1)c1ccccn1 [Dexchlorpheniramine Maleate] | 112
35 | Cc1nc(-c2ccc(OCC(C)C)c(C#N)c2)sc1C(=O)O [Febuxostat] | 99.9
36 | COc1ccccc1OCC(O)COC(N)=O (centres undefined) [Methocarbamol] | 101
37 | CC(C)C(=O)OCC(=O)[C@@]12O[C@H](C3CCCCC3)O[C@@H]1C[C@H]1[C@@H]3CCC4=CC(=O)C=C[C@]4(C)[C@H]3[C@@H](O)C[C@@]12C [Ciclesonide] | 100
38 | NC[C@H]1O[C@H](O[C@H]2[C@H](O)[C@@H](O[C@H]3O[C@H](CO)[C@@H](O)[C@H](N)[C@H]3O)[C@H](N)C[C@@H]2N)[C@H](N)C[C@@H]1O [Tobramycin] | 68.2
39 | CC(C)NCC(O)c1cc(O)cc(O)c1 (centres undefined) [Metaproterenol sulfate] | 96.9

Pulled by structure from above (two):
Row | Compound | cell viability
31 | Cc1cccc(Nc2ccncc2S(=O)(=O)NC(=O)NC(C)C)c1 [Torsemide] | 105
28 | CCc1nc(N)nc(N)c1-c1ccc(Cl)cc1 [Pyrimethamine] | 73.2
